This is an account of results in PMC3534531.

For this test, the target named is T1, hypothetical protein EUO CPn0561 (Chlamydia pneumoniae) (UniProt Q9Z7Z2).
T1 sequence: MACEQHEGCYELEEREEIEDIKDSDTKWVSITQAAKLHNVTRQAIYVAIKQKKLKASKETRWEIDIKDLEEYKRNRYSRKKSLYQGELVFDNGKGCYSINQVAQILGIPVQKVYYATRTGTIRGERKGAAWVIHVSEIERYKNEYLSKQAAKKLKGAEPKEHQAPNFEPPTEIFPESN
Description: two-hybrid; ORFeome-wide library screen: bait in pBD-Gate2 (GAL4 DNA-binding domain), pooled Cpn ORFeome prey library in pAD-Gate2, co-transformed into S. cerevisiae AH109; selection on SD/-trp-leu-ade-his, at least 4 days at 28°C; recovered preys retested with the bait or empty pBD-Gate2 and sequenced.

Results are given in words; binding and its absence hold for the method and conditions named. Some entries that bind do so weakly or less than the wild type.

B1: hypothetical protein EUO CPn0561 (protein, UniProt Q9Z7Z2 1-178)
chain: T1 sequence
On to B1, for which the binding result was “binds”.

B2: PTS phosphocarrier protein Hpr ptsH CPn0037 (protein, UniProt Q9Z9E4 1-108)
chain: MNEPTRTYLESEKDTQDQIEELQATCIVKNAAGIHVRPAGVIVRLFDGEPCDVHFTYAGKTINAKSIMSILMLGAPQGGEILVTIRSKEAHRILQKIQDAFSSGFGEL
Take B2: the binding entry is listed as “binds”.
